In brackets after ≈: the same amount, converted by molar mass.

For the assay, the system named is HIV-1 (RF). Description: HIV RNA assay: microplate based compound evaluation in HIV-1 infected MT-2 cells. In kind it is cell-based. Particulars: Human immunodeficiency virus 1, MT2, 72 h; HIV-1 (RF) infected MT-2 cells, 3 days; value used to standardize the virus inoculum; read-out: IC90 (concentration of compound required to reduce the HIV RNA level by 90%). The protocol:
Plasmid PDAB 72 containing both gag and pol sequences of BH10 (bp 113–1816) cloned into PTZ 19R was prepared according to Erickson-Viitanen et al. AIDS Research and Human Retroviruses 1989, 5, 577. The plasmid was linearized with Bam HI prior to the generation of in vitro RNA transcripts using the Riboprobe Gemini system II kit (Promega) with T7 RNA polymerase. Synthesized RNA was purified by treatment with RNase free DNAse (Promega), phenol-chloroform extraction, and ethanol precipitation. RNA transcripts were dissolved in water, and stored at −70° C. The concentration of RNA was determined from the A260.
Biotinylated capture probes were purified by HPLC after synthesis on an Applied Biosystems (Foster City, Calif.) DNA synthesizer by addition of biotin to the 5′ terminal end of the oligonucleotide, using the biotin-phosphoramidite reagent of Cocuzza, Tet. Lett. 1989, 30, 6287. […]
MT-2 and MT-4 cells were maintained in RPMI 1640 supplemented with 5% fetal calf serum (FCS) for MT-2 cells or 10% FCS for MT-4 cells, 2 mM L-glutamine and 50 μg/mL gentamycin, all from Gibco. […] Infectious titers of HIV-1(RF) stocks were 1–3×10^7 PFU (plaque forming units)/mL as measured by plaque assay on MT-2 cells (see below). […]

With `Nc1ccn([C@H]2CC[C@@H](CO)O2)c(=O)n1` [ddC, 2′,3′-dideoxycytidine], the IC90 came to 0.2 mg/L (≈ 0.947 µM).

The values above are taken from patent US7015214B2, “Cyanamide, alkoxyamino, and urea derivatives of 1,3-benzodiazepine as HIV reverse transcriptase inhibitors” (Bristol-Myers Squibb Pharma Company, priority 2001, dated 2006).
